Test results as given in PMC4614863, “New Insights into the RNA-Binding and E3 Ubiquitin Ligase Activities of Roquins”.
These are yes or no findings as the source states them, for the method shown. For some assays here: Sequences can lack the tags named with a protein.

Key:
[1] = biological target: human RC3H1 (a.a. 1–445) (human) (UniProt Q5TC82); test: SAXS; protein alone in solution, concentration series extrapolated to infinite dilution; room temperature; 20 mM Tris-HCl, pH 8.0, 150 mM NaCl, 1 mM TCEP; both purified
[2] = biological target: human RC3H2 (a.a. 1–442) (human) (UniProt Q9HBD1); test: as above
[3] = biological target: RNA-binding region of human RC3H2 (a.a. 87–404), as used in analytical SEC (human) (UniProt Q9HBD1); test: SEC; analytical Superdex 200 10/300, protein without RNA; 20 mM Tris-HCl, pH 8.0, 150 mM NaCl, 1 mM TCEP; column calibrated with gel filtration standard; both purified
[4] = biological target: RNA-binding region of human RC3H2 (a.a. 87–404), N-terminal His6-tag removed (human) (UniProt Q9HBD1); test: crystal structure; RC3H2 (a.a. 87–404) with 15-nt Ier3 RNA (molar ratio 1:1.5); two protein molecules in the asymmetric unit; 17% PEG-10K, 0.1 M Bis-Tris, pH 6.5, 20 °C; both purified
[5] = biological target: RC3H1 ROQ domain (a.a. 178–328), proteolytic product of RC3H1 (a.a. 1–445) (human) (UniProt Q5TC82); test: crystal structure; RC3H1 (a.a. 1–445) with elastase 1:1000 (w/w) in the drop; two copies of a.a. 178–328 in the asymmetric unit; 25% PEG-8000, 0.2 M NaCl, 0.1 M HEPES, pH 7.5, 20 °C; both purified

B1: human RC3H1 (a.a. 1–445) (domain or fragment, UniProt Q5TC82 1-445)
chain: MPVQAPQWTDFLSCPICTQTFDETIRKPISLGCGHTVCKMCLNKLHRKACPFDQTTINTDIELLPVNSALLQLVGAQVPEQQPITLCSGVEDTKHYEEAKKCVEELALYLKPLSSARGVGLNSTTQSVLSRPMQRKLVTLVHCQLVEEEGRIRAMRAARSLGERTVTELILQHQNPQQLSSNLWAAVRARGCQFLGPAMQEEALKLVLLALEDGSALSRKVLVLFVVQRLEPRFPQASKTSIGHVVQLLYRASCFKVTKRDEDSSLMQLKEEFRTYEALRREHDSQIVQIAMEAGLRIAPDQWSSLLYGDQSHKSHMQSIIDKLQTPASFAQSVQELTIALQRTGDPANLNRLRPHLELLANIDPSPDAPPPTWEQLENGLVAVRTVVHGLVDYIQNHSKKGADQQQPPQHSKYKTYMCRDMKQRGGCPRGASCTFAHSQEELEK
How did the binding [1] turn out when B1 was run?
Its binding is “no binding (tested: 0.75, 1 and 5 mg/ml)”.

B2: human RC3H2 (a.a. 1–442) (domain or fragment, UniProt Q9HBD1 1-442)
chain: MPVQAAQWTEFLSCPICYNEFDENVHKPISLGCSHTVCKTCLNKLHRKACPFDQTAINTDIDVLPVNFALLQLVGAQVPDHQSIKLSNLGENKHYEVAKKCVEDLALYLKPLSGGKGVASLNQSALSRPMQRKLVTLVNCQLVEEEGRVRAMRAARSLGERTVTELILQHQNPQQLSANLWAAVRARGCQFLGPAMQEEALKLVLLALEDGSALSRKVLVLFVVQRLEPRFPQASKTSIGHVVQLLYRASCFKVTKRDEDSSLMQLKEEFRSYEALRREHDAQIVHIAMEAGLRISPEQWSSLLYGDLAHKSHMQSIIDKLQSPESFAKSVQELTIVLQRTGDPANLNRLRPHLELLANIDPNPDAVSPTWEQLENAMVAVKTVVHGLVDFIQNYSRKGHETPQPQPNSKYKTSMCRDLRQQGGCPRGTNCTFAHSQEELEK
B2 was tested. Which binding [2] did it give?
The binding was “no binding (tested: 1, 3, 5 and 10 mg/ml)”.

B3: RNA-binding region of human RC3H2 (a.a. 87–404), as used in analytical SEC (domain or fragment, UniProt Q9HBD1 87-404)
chain: SNLGENKHYEVAKKCVEDLALYLKPLSGGKGVASLNQSALSRPMQRKLVTLVNCQLVEEEGRVRAMRAARSLGERTVTELILQHQNPQQLSANLWAAVRARGCQFLGPAMQEEALKLVLLALEDGSALSRKVLVLFVVQRLEPRFPQASKTSIGHVVQLLYRASCFKVTKRDEDSSLMQLKEEFRSYEALRREHDAQIVHIAMEAGLRISPEQWSSLLYGDLAHKSHMQSIIDKLQSPESFAKSVQELTIVLQRTGDPANLNRLRPHLELLANIDPNPDAVSPTWEQLENAMVAVKTVVHGLVDFIQNYSRKGHETPQ
B3 was tested. Which binding [3] did it give?
The binding was “no binding”.

B4: RNA-binding region of human RC3H2 (a.a. 87–404), N-terminal His6-tag removed (domain or fragment, UniProt Q9HBD1 87-404)
chain: B3 chain
How did the binding [4] turn out when B4 was run?
The binding was “no binding”.

B5: RC3H1 ROQ domain (a.a. 178–328), proteolytic product of RC3H1 (a.a. 1–445) (domain or fragment, UniProt Q5TC82 178-328)
chain: QLSSNLWAAVRARGCQFLGPAMQEEALKLVLLALEDGSALSRKVLVLFVVQRLEPRFPQASKTSIGHVVQLLYRASCFKVTKRDEDSSLMQLKEEFRTYEALRREHDSQIVQIAMEAGLRIAPDQWSSLLYGDQSHKSHMQSIIDKLQTPA
How did the binding [5] turn out when B5 was run?
Its binding is “no binding”.
